# Reference: publication PMC8156151 (The European Respiratory Journal, 2021)
# No dose or concentration is given here for some results.
# Assays:
# Assay type in all cases: in vivo, human
# Settings in all cases: IPF patients, percentage of baseline
# [1] = tested on: PDGF-BB; test: Plasma biomarker PDGF-BB (Luminex/ELISA)
# Method: (§1) All patients, investigators, sites and study sponsor personnel were blinded to the study group assignments throughout the study. Patients underwent study-specific assessments on days 2, 3, 7, 14 and 15, and a post-study assessment was carried out 26–30 days after the last day of the study period. Assessments included vital signs (supine blood pressure, pulse, oxygen saturation, oral temperature and respiratory rate), spirometry, 12-lead ECG, physical examination, laboratory safety screen (haematology, biochemistry, urinalysis and urinary drugs of abuse screen) and blood sampling for PK measurements. All adverse events and concomitant medications were recorded from the time of the screening visit until the post-study follow-up visit. BAL was performed at day −1 (24 h before the first dose) and at day 14 (2 h after the last dose). […]
# (§2) BAL cells were separated from fluid by centrifugation, and cells were collected, stained with antibodies (supplementary material) and then fixed before analysis using a LSR Fortessa flow cytometer (Becton Dickinson, Franklin Lakes, NJ, USA). Data were analysed using FlowJo software (Tree Star, Ashland, OR, USA). […] Gal-3 expression (mean fluorescence intensity) was determined from the macrophage gate (supplementary figures S1 and S2). […] Samples were analysed by magnetic Luminex assay (R&D Systems, Minneapolis, MN, USA) or ELISA. […]
# [2] = tested on: PAI-1; test: Plasma biomarker PAI-1
# Method: as §1, §2
# [3] = tested on: CCL18 (PARC); test: Plasma biomarker CCL18
# Method: as §1, §2
# [4] = tested on: YKL-40 (CHI3L1); test: Plasma biomarker YKL-40
# Method: as §1, §2
# [5] = tested on: MMP-8; test: Plasma biomarker MMP-8
# Method: as §1, §2
# [6] = tested on: HGF; test: Plasma biomarker HGF
# Method: as §1, §2
# [7] = tested on: MMP-1; test: Plasma biomarker MMP-1
# Method: as §1, §2
# [8] = tested on: CCL2 (MCP-1); test: Plasma biomarker CCL2
# Method: as §1, §2
# [9] = tested on: CCL5 (RANTES); test: Plasma biomarker CCL5
# Method: as §1, §2
# [10] = tested on: MIF; test: Plasma biomarker MIF
# Method: as §1, §2
# [11] = tested on: MMP-7; test: Plasma biomarker MMP-7
# Method: as §1, §2
# [12] = tested on: PTX3; test: Plasma biomarker PTX3
# Method: as §1, §2
# [13] = tested on: Osteopontin; test: Plasma biomarker osteopontin
# Method: as §1, §2
# [14] = tested on: Gal-1; test: Plasma biomarker Gal-1
# Method: as §1, §2
structure (smiles),measurement,setting,value
OC[C@H]1O[C@@H](S[C@@H]2O[C@H](CO)[C@H](O)[C@H](n3cc(-c4cccc(F)c4)nn3)[C@H]2O)[C@H](O)[C@@H](n2cc(-c3cccc(F)c3)nn2)[C@H]1O [TD139],"PDGF-BB, analysis including dose as a continuous covariate: Estimate",[1],-18.06
same,"PAI-1, analysis including dose as a continuous covariate: Estimate",[2],-12.25
same,"CCL18 (PARC), analysis including dose as a continuous covariate: Estimate",[3],-2.88
same,"YKL-40 (CHI3L1), analysis including dose as a continuous covariate: Estimate",[4],-2.88
same,"MMP-8, analysis including dose as a continuous covariate: Estimate",[5],-11.55
same,"HGF, analysis including dose as a continuous covariate: Estimate",[6],-3.44
same,"MMP-1, analysis including dose as a continuous covariate: Estimate",[7],-7.11
same,"CCL2 (MCP-1), analysis including dose as a continuous covariate: Estimate",[8],-6.35
same,"CCL5 (RANTES), analysis including dose as a continuous covariate: Estimate",[9],-3.93
same,"MIF, analysis including dose as a continuous covariate: Estimate",[10],-9.92
same,"MMP-7, analysis including dose as a continuous covariate: Estimate",[11],-5.22
same,"PTX-3, analysis including dose as a continuous covariate: Estimate",[12],-5.14
same,"Osteopontin, analysis including dose as a continuous covariate: Estimate",[13],-2.40
same,"Galectin-1, analysis including dose as a continuous covariate: Estimate",[14],-1.17
